PubChem BioAssay AID1053208 – Peter MacCallum Cancer Centre, 2014

Screen: 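Genes whose silencing cuts survival of bone tumour cells only with doxorubicin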 (primary screen)
Cell system: mouse osteosarcoma cells, early-passage culture from an engineered mouse model of fibroblastic bone tumour
Reagent: siRNA pool against mouse genes, 40 nM
Time to read-out: about 120 h (48 h before drug, then 72 h with drug)
Conditions: doxorubicin 100 nM for 72 h, roughly 30-40% inhibitory dose
Measured: 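Viability read as ATP luminescence after 72 h of 100 nM doxorubicin or none, duplicate wells averaged, scaled to non-targeting siRNA, then expressed as robust z-scores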
Direction: viability z-score with doxorubicin: higher = more viable cells under doxorubicin; viability z-score without drug: higher = more viable cells with knock-down alone
Rule for the call: 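a pool counts as active when its viability z-score with doxorubicin is -2 or below and its z-score without drug lies between -2 and 2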
The whole screen tested about 17,000 reagents; shown is a part drawn at random. 788 of them (4.7%) count as active. 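Calls rest on z-score classes alone; an extra cut-off of viability at most 70% of control was not applied to them.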 Further read-outs or replicates are left out here.

no.	gene	combined z-score class	viability z-score with doxorubicin	viability z-score without drug	Outcome
1	Lipt2	no change with or without drug	0.67	-0.51	inactive
2	Polq	no change with or without drug	-0.45	1.85	inactive
3	Ifngr1	no change with or without drug	-0.45	0.51	inactive
4	Pvalb	no change with or without drug	0.34	0	inactive
5	Lce1b	high cell count with doxorubicin only	2.47	1.85	inactive
6	Lcp1	no change with or without drug	1.12	0.51	inactive
7	Pla2g2e	no change with or without drug	0.9	0.51	inactive
8	Praf2	no change with or without drug	-0.45	0.67	inactive
9	Adam17	no change with or without drug	-0.22	-0.17	inactive
10	Clcn5	no change with or without drug	-0.11	0.51	inactive
11	Gstcd	no change with or without drug	-0.56	-0.84	inactive
12	Zmym5	no change with or without drug	0.45	1.35	inactive
13	Rcor1	no change with or without drug	0.11	0.84	inactive
14	Slc13a4	high cell count without drug only	0.22	2.02	inactive
15	Chfr	low cell count with doxorubicin only	-2.02	-1.52	active
16	Flnc	no change with or without drug	0.22	0.51	inactive
17	Hoxb5	no change with or without drug	-0.45	-1.18	inactive
18	Lrrc18	high cell count without drug only	0.9	3.54	inactive
19	Or10q1	low cell count without drug only	0.22	-2.19	inactive
20	Dgkq	no change with or without drug	-0.22	-0.17	inactive

Single entries from the entries so far.
Under “Outcome”, Lce1b shows inactive
Entry for Zmym5 under “viability z-score with doxorubicin”: 0.45
